According to paper PMC10127607:
Results are given in words; binding and its absence hold for the method and conditions named. Binding seen in cells or lysates may run through a third protein. These calls come from enrichment with a bait or labelling near it, and not all partners need be listed.

Amino acid sequences for entries named in this document (tags omitted).
UniProt O60942: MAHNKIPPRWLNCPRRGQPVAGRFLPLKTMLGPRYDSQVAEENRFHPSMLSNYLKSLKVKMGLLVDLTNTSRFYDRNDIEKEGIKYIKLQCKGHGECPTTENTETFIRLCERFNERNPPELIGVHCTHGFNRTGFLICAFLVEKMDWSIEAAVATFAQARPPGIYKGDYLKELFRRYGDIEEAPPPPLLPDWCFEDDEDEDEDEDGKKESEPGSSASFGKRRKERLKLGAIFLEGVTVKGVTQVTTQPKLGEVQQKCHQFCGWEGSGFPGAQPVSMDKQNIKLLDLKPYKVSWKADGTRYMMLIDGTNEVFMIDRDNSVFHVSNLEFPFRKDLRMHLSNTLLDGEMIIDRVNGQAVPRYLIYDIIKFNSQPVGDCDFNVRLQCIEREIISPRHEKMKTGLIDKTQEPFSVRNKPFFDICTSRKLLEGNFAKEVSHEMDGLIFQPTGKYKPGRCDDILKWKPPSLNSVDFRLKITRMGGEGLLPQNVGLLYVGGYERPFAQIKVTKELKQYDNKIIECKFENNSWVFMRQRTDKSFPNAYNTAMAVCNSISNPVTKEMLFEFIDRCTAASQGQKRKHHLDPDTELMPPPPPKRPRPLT

Target: T1, DRAP1 (DR1-associated corepressor), endogenous (human (endogenous in THP-1)) (UniProt Q14919)
T1 sequence: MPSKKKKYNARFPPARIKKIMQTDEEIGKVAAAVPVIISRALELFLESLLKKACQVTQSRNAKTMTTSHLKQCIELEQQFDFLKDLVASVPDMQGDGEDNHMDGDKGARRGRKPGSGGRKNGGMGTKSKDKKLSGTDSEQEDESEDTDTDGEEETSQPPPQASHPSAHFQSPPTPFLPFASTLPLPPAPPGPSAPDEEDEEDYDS
Assay: affinity purification with mass spectrometry; IP of endogenous RPL35 and DRAP1 from THP-1 macrophages infected with HIV-1 (SERINC5+), 24 h postinfection; cells cross-linked with DSS (10 μg/mL, 30 min), lysed in nondenaturing RIPA buffer, antibody-conjugated protein G beads 3 h; in-gel trypsinization, LC-MS, Mascot

## mammalian capping enzyme (MCE1), endogenous (from UniProt O60942 1-597)
  binding: binds
